Measured data: PubChem BioAssay AID1259425 (University of Nebraska Medical Center, 2018)

Test: 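Compare each knockdown with KSR1 silencing using changes in marker transcripts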 (primary screen)
Cells: HCT116 human colon cancer cells
Knock-down reagent: siRNA pool against human genes, 50 nM siRNA
Measurement: 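After 50 nM siRNA pool, branched-DNA assay measures six marker transcripts per well, minus blank, normalised to the geometric mean of two housekeeping transcripts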
Scale: BNIP3L mRNA: higher = more BNIP3L transcript after knockdown; NDRG1 mRNA: higher = more NDRG1 transcript after knockdown; BNIP3 mRNA: higher = more BNIP3 transcript after knockdown
Shown is a random part of about 14,000 reagents tested. Reagents against one gene are numbered here. Not all columns of the deposit are shown. No sequences are given here. Not stated in the record: the time to read-out.

target gene	reagent no.	BNIP3L mRNA, set 1	NDRG1 mRNA, set 1	BNIP3 mRNA, set 1
CAPN6	1	0.119	0.228	0.428
ATP1B1	1	0.157	0.195	0.303
EHD3	1	0.106	0.299	0.294
RFC4	1	0.139	0.0472	0.17
MORC3	1	0.103	0.485	0.345
AXL	1	0.074	0.15	0.405
SH3GLB2	1	0.147	0.534	0.323
PPP1R3A	1	0.101	0.19	0.249
PEX1	1	0.538	1.54	0.774
LHFPL6	1	0.0977	0.07	0.423
MYL7	1	0.0711	0.248	0.32
ATP8B4	1	0.173	0.198	0.293
CCDC22	1	0.152	0.647	0.309
CEACAM3	1	0.122	0.0754	0.376
ABLIM3	1	0.187	0.192	0.231
SI	1	0.137	0.179	0.355
TASP1	1	0.147	0.219	0.504
COL4A4	1	0.0556	0.103	0.203
CLTA	1	0.107	0.153	0.365
TBCK	1	0.07	0.0398	0.195
SCN3A	1	0.046	0.143	0.234
CHST7	1	0.223	0.358	0.543
SLC12A1	1	0.136	0.217	0.393
CANX	1	0.317	0.162	0.274
WWC1	1	0.132	0.254	0.331
MYH7B	1	0.134	0.173	0.238
TBX21	1	0.179	0.0917	0.306
PCSK4	1	0.109	0.09	0.319
RAD23A	1	0.0751	0.394	0.256
PA2G4	1	0.0861	0.239	0.284
LPAR4	1	0.181	0.117	0.293
FAM194C	1	0.191	0.256	0.246
CTNNA2	1	0.12	0.207	0.326
CHKB	1	0.221	0.628	0.382
HAL	1	0.105	0.3	0.193
CALM3	1	0.124	0.416	0.504
WNK4	1	0.123	0.155	0.561
ADH5	1	0.0981	0.373	0.418
GEMIN5	1	0.0845	0.152	0.475
CHAD	1	0.17	0.33	0.25
VAMP7	1	0.0658	0.389	0.195
RRP15	1	0.156	0.564	0.386
LETM1	1	0.0866	0.209	0.32
DHX29	1	0.085	0.301	0.372
KMT2A	1	0.103	0.191	0.227
KMT2A	2	0.116	0.366	0.258
CLEC3A	1	0.0639	0.0972	0.239
BEX4	1	0.4	0.492	0.578
BARX1	1	0.0803	0.691	0.238
PAX7	1	0.061	0.126	0.302
LILRA4	1	0.0512	0.131	0.226
PLEKHA4	1	0.312	0.113	0.632
PPID	1	0.0811	0.102	0.254
RAD54L	1	0.134	0.102	0.278
COQ3	1	0.181	0.306	0.214
CNGA4	1	0.128	0.575	0.225
XYLB	1	0.0798	0.156	0.167
ARPC5L	1	0.138	0.134	0.323
COG6	1	0.131	0.206	0.29
RAB5C	1	0.074	0.186	0.231
ANKRD20A1	1	0.227	0.138	0.252
ZNF20	1	0.187	0.218	0.21
OVOL1	1	0.0804	0.366	0.245
